Assay results: article PMC7862700
Only a part is listed here, and it is no random draw. At the low end of the ranking, values are background and their order means little.

Molecular target: SPI1 (UniProt P17947)
Test: DAPPL (digital affinity profiling via proximity ligation, sequencing)
Conditions: 10 mM Tris-HCl pH 7.5, 50 mM NaCl, 1 mM DTT, 4% glycerol, room temperature, 30 min; GST-TFs on glutathione beads, 16-mer random dsDNA library, 0.1% …; high values mean tight binding; double strand, one strand shown; scale: fold enrichment (6-mer frequency, TF over GST control)

| Sequence | binding signal |
| --- | --- |
| TGCACT | 1.68 |
| GAATAC | 0.999 |
| ATCACC | 1.11 |
| AAATTA | 1.22 |
| ACGAAC | 1.1 |
| TCACAG | 0.966 |
| GCTAAT | 1.13 |
| CTGGGT | 1.13 |
| CCGGAA | 5.33 |
| GATGCT | 1.23 |
| CCTAAA | 1.25 |
| CTAAAC | 1.17 |
| TACGAA | 1.15 |
| GAACAT | 1.04 |
| TTAACC | 1.23 |
| CCGAAG | 0.956 |
| ATTAGC | 0.989 |
| AGCTTT | 1.16 |

| Sequence | binding signal |
| --- | --- |
| TAACCC | 1.18 |
| TATTTC | 2.02 |
| AATTCC | 1.89 |
| AAGCAG | 1.24 |
| CGTTCA | 1.16 |
| TGGTTT | 1.66 |
| CAATCC | 1.12 |
| TTTGCG | 1.32 |
| TGCTCA | 1.27 |
| CTGACT | 1.27 |
| TTCATA | 1.18 |
| GATACG | 1.04 |
| CGTCTC | 1.36 |
| CTTACG | 1.09 |
| TCGCAC | 1.13 |
| GCTATT | 1.3 |
| TTATGT | 1.31 |
| CGACGA | 0.975 |

Nothing new here: entries from further up.

| Sequence | binding signal |
| --- | --- |
| CGTCTC | 1.36 |
| CTTACG | 1.09 |
